Here are results for 106 sequences from PubChem BioAssay AID1508600 (Functional Genomics Laboratory (NCATS/FGL), 2020).

The campaign covered roughly 53,000 sequences. About 3,700 (7%) were called active.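 How the source made its calls: active means gene knockdowns whose robust z-score for IL-1 alpha signal is at least 2 or at most -2, so actives lie on both sides; inactive means the rest.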 This is one part of the list.

The assay can be described thus: Components of the Cytosolic LPS Sensing Pathway: Gene Identification via Genome-wide siRNA Screen.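 Further: robust z of the log signal after scaling to non-targeting control siRNA wells of the plate.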 Particulars: RAW264.7 macrophages, IL-1a HTRF, actives lie on both sides, screened at 100 nM (by protocol), cells primed 5 h with Pam3CSK4 first. A digest of the protocol:
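Knockdown: 100 nM siRNA, 48h, RAW264.7. Stimulation: Pam3CSK4 5 h, then LipidA via TransIT-TKO 24 h. Output: supernatant IL-1a HTRF, negative-control-normalized, log robust z-score; viability by CellTiter-Glo.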
On the technique in general: In TR-FRET formats the signal depends on donor and acceptor labels being close together.
As for GGCUGGACAGGAUUAUCCATT against Tmem185b, the z-score is inactive: -0.904.
GGGAAUCUUGUUAUAAGGGTT against Vmn1r69: the z-score is inactive: 0.0276.
Turning to GGAUGUAACUAGUAACUUUTT against Kcnn3, the z-score was inactive: 0.108.
The value for GCUACCCUCGUUGUUGACATT against Hcrtr2 was inactive: -0.559; that for GGGUCAACCCGAUAUUACCTT against Kcnh7 was inactive: 0.0824.
Turning to GGAAAUGGUUCUAACAAAATT against Cpa5, the z-score is inactive: 0.933.
With GGGAUAUUGAGGAAGGUAUTT against Eda2r, the z-score is inactive: -0.842.
The value for CCUGUUUGUACUACUCUUUTT against Krt84 was inactive: 0.997; that for GCAUGAGUAUUCCAAGGAGTT against Arhgef7 was active: -2.36; that for GGUCAGAGGGCGAAUUAAATT against Akap4 was inactive: 0.0419.
Turning to CGGGCACUUAAGUUUCCAGTT against Nfix, the z-score is inactive: 1.44.
Turning to GGAACUGAAGUUGAAAUAATT against Pkhd1l1, the z-score was inactive: -0.751.
As to GGAAAAACAACCAGAUUGATT against Ttc39c, the z-score is inactive: -0.551.
As to CCCUCUGGAUGGAUCUUCATT against Fbp2, the z-score was inactive: -1.3.
The value for GCUGUUUGAGGUCAUUCAUTT against Urb2 was active: 4.71.
For the sequence GGGUAGUGGUGAGCAAGACTT against Wnt10b, the z-score is inactive: 1.42.
Regarding CCUCCAGUUCAGAAUUCUATT against Surf4, the z-score is inactive: 0.634.
Regarding GCCCUUACCAUGUGUCCUUTT against Olfr1346, the z-score was inactive: 0.939.
The value for GGGCAAGUUUUCUACAUUUTT against Cntnap2 was inactive: 1.16; that for GUACAUGAGAGACCCUGAUTT against Lsm7 was inactive: 0.337.
The value for “GCUCGAGAAGAGUUUGUUATT against 1700030J22Rik” was inactive: 0.933.
On to CCCUAAAGCUUUAUAGUGCTT against Usp17lb, for which the z-score is inactive: 1.39.
For the sequence GGUGAUUGAACAGAGCUACTT against Slc2a4, the z-score is inactive: -0.937.
As for GGAAGUGAUAUCAUCGUAGTT against Dnajb11, the z-score was inactive: -1.67.
As for GGUCUUUCUGACGCAGACUTT against Isg15, the z-score was inactive: 0.64.
As to GGUAAAUGUCUGCUCUGAGTT against Selenok, the z-score is active: -2.53.
On to GGAGACUAUUACCAUACUGTT against P4ha2, for which the z-score was inactive: -0.991.
The value for GCAUGGUAUUUCAUAAAGCTT against Inka2 was inactive: -0.0246; that for GGCAAGGAGGAUGACAAAATT against Rnf113a2 was inactive: 0.416; that for CCUCCAGGCUAUUUAUAGUTT against Unc119 was inactive: -0.14.
Consider CCCGGUUGAGAAGAUAGACTT against Sod3, for which the z-score is inactive: 0.21.
On to GGGAAGAUCAGGGAUGCUCTT against Dnajc19, for which the z-score is inactive: -0.991.
Regarding GCCGCUUAUUCACAGAUGUTT against Klhl24, the z-score was inactive: 0.399.
With GCACCAUAUCUGAGAACUUTT against Prl5a1, the z-score was inactive: -0.254.
CCUCUCCUUACAACUGAUGTT against Zfp286: the z-score is inactive: -0.167.
GGAGAAAGGAAAACUCUUUTT against Pcdhga8: the z-score is inactive: 0.848.
As to GGCAGAUCUUCUUUGGAAATT against Ugt2b38, the z-score is inactive: 0.757.
The value for GGCACUUGCUUUGGAUAAATT against Serpinb6a was inactive: -0.742.
For the sequence GCCACCCUACCAUAGCAAATT against Sgip1, the z-score was inactive: 0.675.
The value for CGCAACCAUCAUCGUGCUCTT against Olfr282 was inactive: 0.125; that for “GCUAACUGAUACUCCACCATT against 2810006K23Rik” was inactive: 0.573.
Take GGUAGUUGAGGUUUUAUAGTT against Gstcd: the z-score is inactive: -0.877.
Consider GGAAGAAGUCAAACCAUAUTT against Ccl25, for which the z-score is inactive: -1.28.
With GGAUUUCUCGGAAGUCGAGTT against Cd3e, the z-score was inactive: 0.517.
As to GGGAAUGUGUUCUUUAUCATT against Commd9, the z-score was inactive: 1.02.
As to CCUAAAUCUCACCUCCACATT against Gp9, the z-score was inactive: -0.83.
GGAUGUGGAAGCAGUUUGUTT against Zfp101: the z-score was inactive: 1.32.
For the sequence GGCAUCUUAAAAUUGACUGTT against Olfr701, the z-score is inactive: -0.476.
Take GGAGGAUGAAGGCCAUUCATT against Hnrnpd: the z-score was inactive: 1.54.
Take GGAUCUCUUAGGUAUCUUATT against Nlrp14: the z-score is inactive: 1.45.
For GGGUAAUCAGAUUGAAAGATT against Dnah5, the z-score is inactive: 0.0753.
GCCACGAAGGUACUAUGUATT against Tbce: the z-score is inactive: 0.176.
On to GGUAGAAUACCUUCAGAUUTT against Ercc4, for which the z-score was active: 2.81.
The value for GGCGGAGUAGACUUCAUAUTT against Olfr593 was inactive: 0.363.
With UAUGUUGGAGCCUAUGUUCTT against Cacfd1, the z-score is inactive: -0.231.
In the case of GCCGUUAGAAACAAAGUCGTT against Taf3, the z-score is active: -2.48.
For the sequence “CCGGGUAGUCUUUUUGGUGTT against 9130019O22Rik”, the z-score is inactive: -1.72.
As to GCAUAAUUCUUUCUUCGCATT against Krtap14, the z-score was inactive: -0.638.
In the case of GGAAGAUGACCUCUACAUCTT against Aldh3a1, the z-score is inactive: -0.6.
With GGUAUUGAAAAGGUGAAGUTT against Lpp, the z-score is inactive: -0.335.
The value for GGGACUUGAAGAUAAUCAATT against Dnajc10 was inactive: 1.93.
The value for CCCAGUUAUCCUGAAAAGUTT against Ears2 was inactive: 0.526; that for GGAAGUUGUAGAAGAAACUTT against Tcp11l2 was inactive: -0.156; that for GGCCAUGACAUCACAGAACTT against Eif3f was inactive: -0.144.
For the sequence GGUACACAUAACACAGAUATT against Rpl23, the z-score is inactive: 0.942.
GGCUUAAACGAUUUUUCCATT against Elp3: the z-score is inactive: 1.63.
For the sequence GGGAUACUUUCUUCGAGGATT against Soga3, the z-score was active: -2.36.
Regarding GGAACAUUGAUGGAAUUGGTT against Sec61a2, the z-score is inactive: -0.0657.
On to GGAAGUCAUUUUUUCCAAGTT against Msantd4, for which the z-score was inactive: 1.12.
CCAGUGAAUGACUUCACUCTT against Rpp21: the z-score is inactive: 0.0309.
As for GGAGGAAAUCAGAGAGAGGTT against Kank1, the z-score is inactive: 0.00353.
The value for CCUAUAAUGCUUACAGGAUTT against Olfr477 was inactive: 0.352; that for GCACGCAUUAAAUUCAAAGTT against Magea9-ps was inactive: -0.811.
As for CGGGAAAUUUCUAUUGGACTT against Akr1c12, the z-score was inactive: 0.312.
For the sequence CGCAGUGAUUAUGACCUCCTT against Thegl, the z-score is active: -2.34.
In the case of CCCAAUCAGCAUUUGCUCUTT against H2-M10.3, the z-score is inactive: 0.104.
Consider GGCAUCAAUCAUGAGCAUUTT against Chrna4, for which the z-score is inactive: 0.626.
With GGAAGUCACCUUUUAUCCUTT against Chac1, the z-score was inactive: 1.59.
Regarding GGGCAGCAAAGAAUUAACUTT against Ptpmt1, the z-score is inactive: -0.619.
In the case of GCUAAUUACAGCUUCUCCCTT against Yars, the z-score was inactive: 0.294.
Regarding CGGCAUGCUGUGGAAAAAGTT against Btrc, the z-score was inactive: -0.869.
As for GGACAAGGCCAAGCUAUAATT against Cntnap2, the z-score is inactive: -1.47.
The value for GGAAUCACCCAUCUUUUUATT against Mmgt1 was inactive: 1.11; that for GGAUCCUAGUGAUGAUAAUTT against Styx was inactive: 0.629.
On to GGAAUGCAUGAUGAUGUCATT against Prl7a2, for which the z-score is inactive: -0.783.
The value for GGUGCUCUCAAGUGGGAUUTT against Gm5114 was active: -2.15; that for GGGAGAAACCAAGGAACUCTT against Wdr55 was inactive: 0.21.
The value for GGGCUUCGAUGCUAUCAUCTT against Trmt9b was inactive: 1.31.
Take GGUACACUGGAUUUUCUGGTT against Slc4a1: the z-score was inactive: 0.13.
The value for GCUAAAUUGUAUCCCUUCUTT against Pou2af1 was inactive: 0.082.
For CCUACUAUAUAUGUGAUGCTT against Jrk, the z-score was inactive: -0.742.
GGCUUAUCUAACCAAGUACTT against Prdm4: the z-score is inactive: -0.299.
For the sequence GGGAUUUUACAGACUUAAGTT against Tm4sf1, the z-score is inactive: -0.219.
On to GGUAGAAGCCAAGAUGAGCTT against Abi3, for which the z-score was inactive: -1.08.
Take GGUCCACCUCAACAAGCUATT against Zfp536: the z-score was active: 2.57.
For GCACUGGACCAAAGAACGGTT against Cercam, the z-score is inactive: 1.14.
Consider CAUUGUCAUUCUAGUUGCATT against Olfr1251, for which the z-score is inactive: 0.64.
Regarding GGAAGUGGCUUUUUAUCAGTT against Arhgap6, the z-score is active: 2.05.
As to GGAUCUGCACACCUAUGGGTT against Prok2, the z-score was inactive: -0.791.
Take GUAGUUAGGAACUCUUGCUTT against Thnsl2: the z-score was inactive: -0.086.
As for GGUGAUCCCGAAUGAUGAATT against Cpa2, the z-score was inactive: -0.718.
The value for CCAUAGGAAUGCAUUUGAGTT against Arhgef7 was inactive: -0.741; that for GGUGAACAUCACUUAUCCCTT against Plekhh1 was inactive: 0.0443.
With GGAGCUGCUGUUAAUUCCATT against Col5a3, the z-score is inactive: 1.3.
On to GGAACAACUUGAUACCUCUTT against Trim44, for which the z-score was inactive: -0.89.
On to GGCUAUGUUGCACUUUCACTT against Vmn1r229, for which the z-score is inactive: 0.703.
